Results are given in words; binding and its absence hold for the method and conditions named. Each block holds one binder with its values, some of them ahead of it.
Assays:
[1] = target: Vacuolar Protein Sorting-Associated 26A (AtVPS26A) (Arabidopsis thaliana) (UniProt Q9FJD0); assay: mass photometry; VPS26A, VPS26B alone or mixed 1:1, in solution; typical working concentrations 5-25 nM; both purified
[2] = target: Vacuolar Protein Sorting-Associated 26A (AtVPS26A) (Arabidopsis thaliana) (UniProt Q9FJD0); assay: MST; 20 nM fluorescence-labelled protein (RED-NHS or RED-…), ligand dilution series, 25 °C, PBS pH 7.4, 0.05% Tween-20; apparent Kd; averages of 2 to 4 experiments; both purified
[3] = target: Vacuolar Protein Sorting-Associated 26A (AtVPS26A) (Arabidopsis thaliana) (UniProt Q9FJD0); assay: as above; remark: listed apart in the source
[4] = target: Vacuolar Protein Sorting-Associated 26B (AtVPS26B) (Arabidopsis thaliana) (UniProt Q9T091); assay: as above
[5] = target: T1, Vacuolar Protein Sorting-Associated 26B (AtVPS26B) (Arabidopsis thaliana), Q9T091; assay: mass photometry; VPS26A, VPS26B alone or mixed 1:1, in solution; typical working concentrations 5-25 nM; both purified; details: remark: other sources report otherwise
T1 chain: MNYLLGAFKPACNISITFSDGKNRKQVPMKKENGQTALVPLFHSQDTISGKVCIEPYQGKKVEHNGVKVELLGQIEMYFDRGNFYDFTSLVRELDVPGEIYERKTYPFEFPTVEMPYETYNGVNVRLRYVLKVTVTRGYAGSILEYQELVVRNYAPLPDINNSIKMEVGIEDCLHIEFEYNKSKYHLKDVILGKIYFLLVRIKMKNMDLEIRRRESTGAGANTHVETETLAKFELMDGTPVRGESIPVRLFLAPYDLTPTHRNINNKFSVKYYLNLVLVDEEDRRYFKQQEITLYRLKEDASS

[6] = target: T1, Vacuolar Protein Sorting-Associated 26B …; assay: MST; 20 nM fluorescence-labelled protein (RED-NHS or RED-…), ligand dilution series, 25 °C, PBS pH 7.4, 0.05% Tween-20; apparent Kd; averages of 2 to 4 experiments; both purified; details: remark: other sources report otherwise

- binding [1]: no binding
- binding [2]: no binding
B1: Vacuolar Protein Sorting-Associated 26A (AtVPS26A) (natural protein, Arabidopsis thaliana, UniProt Q9FJD0 1-302, looked up)
chain: MNYLLGAFKPACNISITFTDGKNRKQVPTKKDNGQIVMNPLFQSQETIAGKINIEPYQGKKVEHNGVKVELLGQIEMYFDRGNFYDFTSLVREIDVPGEIYERKTYPFEFSSVEMPYETYNGVNVRLRYVLKVTVTRGYAGSIVEYQDFVVRNYVPLPPINNSIKMEVGIEDCLHIEFEYNKSKYHLKDVILGKIYFLLVRIKIKNMDLEIRRRESTGAGANTHVETETLAKFELMDGAPVRGESIPVRVFLTPYDLTPTHKNINNKFSVKYYLNLVLVDEEDRRYFKQQEITLYRLKEETS
notes: AtVPS26A, Arabidopsis thaliana, UniProt Q9FJD0, gene At5g53530; Fluorescently labelled (Monolith RED-NHS or RED-MALEIMIDE kit) when it was the labelled partner in MST; the His-SUMO tag may have been kept in mass photometry (surmise); also called AtVSP26A; source: E. coli BL21 (DE3), purified (nickel resin, ULP1 cleavage, second nickel, SEC)

- binding [3]: no binding
- binding [4]: no binding
B2: AtRGS1 cytoplasmic domain lacking the tail (L253-E420) (domain or fragment, UniProt Q8H1F2 253-420)
chain: LSQISLKKRQNFEFQRMGQALGIPDSGLLFRKEEFRPVDPNEPLDKLLLNKRFRHSFMEFADSCYAGETLHFFEEVYEHGKIPEDDSIRRIYMARHIMEKFIVAGAEMELNLSHKTRQEILTTQDLTHTDLFKNALNEVMQLIKMNLVRDYWSSIYFIKFKEEESCHE

- binding [5]: no binding
- binding [6]: no binding
B3: Vacuolar Protein Sorting-Associated 26B (AtVPS26B), Q9T091 1-303 (protein)
chain: MNYLLGAFKPACNISITFSDGKNRKQVPMKKENGQTALVPLFHSQDTISGKVCIEPYQGKKVEHNGVKVELLGQIEMYFDRGNFYDFTSLVRELDVPGEIYERKTYPFEFPTVEMPYETYNGVNVRLRYVLKVTVTRGYAGSILEYQELVVRNYAPLPDINNSIKMEVGIEDCLHIEFEYNKSKYHLKDVILGKIYFLLVRIKMKNMDLEIRRRESTGAGANTHVETETLAKFELMDGTPVRGESIPVRLFLAPYDLTPTHRNINNKFSVKYYLNLVLVDEEDRRYFKQQEITLYRLKEDASS

Source: publication PMC11580166, “VPS26 Moonlights as a β-Arrestin-like Adapter for a 7-Transmembrane RGS Protein in Arabidopsis thaliana” (Biochemistry, 2024)
